This is one part of the list.

Amino acid sequences for entries named in this document (tags omitted). A change or cut given only in a name is not applied to a line headed by its entry.
UniProt Q6P9F7: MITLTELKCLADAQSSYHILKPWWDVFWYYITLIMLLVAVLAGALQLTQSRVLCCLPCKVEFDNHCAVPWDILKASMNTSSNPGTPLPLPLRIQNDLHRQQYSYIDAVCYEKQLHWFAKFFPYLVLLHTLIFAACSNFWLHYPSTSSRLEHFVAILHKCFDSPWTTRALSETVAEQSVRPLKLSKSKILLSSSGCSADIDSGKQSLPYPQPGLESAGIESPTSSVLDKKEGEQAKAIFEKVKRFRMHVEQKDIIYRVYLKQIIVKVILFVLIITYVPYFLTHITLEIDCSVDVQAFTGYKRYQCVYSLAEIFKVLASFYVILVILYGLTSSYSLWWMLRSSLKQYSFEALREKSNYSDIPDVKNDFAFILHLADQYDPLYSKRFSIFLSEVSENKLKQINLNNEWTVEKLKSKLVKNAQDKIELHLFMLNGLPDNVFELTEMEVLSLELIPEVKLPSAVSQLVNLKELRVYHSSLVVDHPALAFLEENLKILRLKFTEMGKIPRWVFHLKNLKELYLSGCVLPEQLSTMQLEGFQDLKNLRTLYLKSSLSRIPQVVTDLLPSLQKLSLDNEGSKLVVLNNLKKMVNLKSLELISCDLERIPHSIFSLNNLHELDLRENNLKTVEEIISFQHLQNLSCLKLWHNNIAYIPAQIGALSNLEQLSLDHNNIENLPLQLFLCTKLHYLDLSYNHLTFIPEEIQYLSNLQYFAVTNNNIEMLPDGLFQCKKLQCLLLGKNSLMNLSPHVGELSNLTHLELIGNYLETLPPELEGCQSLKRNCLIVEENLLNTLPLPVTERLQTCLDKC
UniProt P27816: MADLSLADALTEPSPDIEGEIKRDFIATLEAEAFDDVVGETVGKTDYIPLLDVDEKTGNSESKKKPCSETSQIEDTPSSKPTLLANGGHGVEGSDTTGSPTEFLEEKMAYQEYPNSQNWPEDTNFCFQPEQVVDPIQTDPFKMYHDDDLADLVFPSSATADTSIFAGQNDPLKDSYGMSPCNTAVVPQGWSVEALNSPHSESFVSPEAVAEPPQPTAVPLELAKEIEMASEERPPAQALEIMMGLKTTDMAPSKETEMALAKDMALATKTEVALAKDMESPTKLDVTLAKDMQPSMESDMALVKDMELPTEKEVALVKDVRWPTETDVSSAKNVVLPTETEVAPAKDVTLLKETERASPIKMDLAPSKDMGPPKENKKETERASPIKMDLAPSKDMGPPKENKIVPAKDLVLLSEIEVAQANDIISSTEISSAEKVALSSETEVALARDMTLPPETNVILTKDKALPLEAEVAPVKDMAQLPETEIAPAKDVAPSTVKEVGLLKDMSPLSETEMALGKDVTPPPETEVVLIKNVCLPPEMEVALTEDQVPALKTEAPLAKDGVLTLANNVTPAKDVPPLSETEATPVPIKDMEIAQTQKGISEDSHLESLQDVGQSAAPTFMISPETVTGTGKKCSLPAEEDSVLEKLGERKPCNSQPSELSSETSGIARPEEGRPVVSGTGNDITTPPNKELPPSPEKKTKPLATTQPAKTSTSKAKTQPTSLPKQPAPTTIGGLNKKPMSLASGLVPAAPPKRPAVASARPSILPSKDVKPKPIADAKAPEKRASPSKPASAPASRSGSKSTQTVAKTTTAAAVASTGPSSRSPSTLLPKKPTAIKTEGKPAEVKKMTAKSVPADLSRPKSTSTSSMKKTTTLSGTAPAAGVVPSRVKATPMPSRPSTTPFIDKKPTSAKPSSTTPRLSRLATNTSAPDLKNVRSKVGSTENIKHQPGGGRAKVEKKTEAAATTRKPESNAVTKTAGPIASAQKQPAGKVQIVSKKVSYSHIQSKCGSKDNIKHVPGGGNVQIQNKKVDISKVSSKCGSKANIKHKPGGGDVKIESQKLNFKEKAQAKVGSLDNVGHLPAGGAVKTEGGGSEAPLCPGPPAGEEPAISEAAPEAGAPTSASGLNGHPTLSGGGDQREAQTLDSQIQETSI
UniProt Q86UD3: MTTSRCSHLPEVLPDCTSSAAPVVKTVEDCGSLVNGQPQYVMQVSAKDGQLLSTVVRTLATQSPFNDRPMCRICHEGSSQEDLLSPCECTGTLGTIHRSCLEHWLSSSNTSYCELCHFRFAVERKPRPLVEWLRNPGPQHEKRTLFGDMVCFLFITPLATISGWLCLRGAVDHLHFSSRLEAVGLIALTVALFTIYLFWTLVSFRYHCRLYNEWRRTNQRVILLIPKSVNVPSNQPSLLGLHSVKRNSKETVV
UniProt Q14766: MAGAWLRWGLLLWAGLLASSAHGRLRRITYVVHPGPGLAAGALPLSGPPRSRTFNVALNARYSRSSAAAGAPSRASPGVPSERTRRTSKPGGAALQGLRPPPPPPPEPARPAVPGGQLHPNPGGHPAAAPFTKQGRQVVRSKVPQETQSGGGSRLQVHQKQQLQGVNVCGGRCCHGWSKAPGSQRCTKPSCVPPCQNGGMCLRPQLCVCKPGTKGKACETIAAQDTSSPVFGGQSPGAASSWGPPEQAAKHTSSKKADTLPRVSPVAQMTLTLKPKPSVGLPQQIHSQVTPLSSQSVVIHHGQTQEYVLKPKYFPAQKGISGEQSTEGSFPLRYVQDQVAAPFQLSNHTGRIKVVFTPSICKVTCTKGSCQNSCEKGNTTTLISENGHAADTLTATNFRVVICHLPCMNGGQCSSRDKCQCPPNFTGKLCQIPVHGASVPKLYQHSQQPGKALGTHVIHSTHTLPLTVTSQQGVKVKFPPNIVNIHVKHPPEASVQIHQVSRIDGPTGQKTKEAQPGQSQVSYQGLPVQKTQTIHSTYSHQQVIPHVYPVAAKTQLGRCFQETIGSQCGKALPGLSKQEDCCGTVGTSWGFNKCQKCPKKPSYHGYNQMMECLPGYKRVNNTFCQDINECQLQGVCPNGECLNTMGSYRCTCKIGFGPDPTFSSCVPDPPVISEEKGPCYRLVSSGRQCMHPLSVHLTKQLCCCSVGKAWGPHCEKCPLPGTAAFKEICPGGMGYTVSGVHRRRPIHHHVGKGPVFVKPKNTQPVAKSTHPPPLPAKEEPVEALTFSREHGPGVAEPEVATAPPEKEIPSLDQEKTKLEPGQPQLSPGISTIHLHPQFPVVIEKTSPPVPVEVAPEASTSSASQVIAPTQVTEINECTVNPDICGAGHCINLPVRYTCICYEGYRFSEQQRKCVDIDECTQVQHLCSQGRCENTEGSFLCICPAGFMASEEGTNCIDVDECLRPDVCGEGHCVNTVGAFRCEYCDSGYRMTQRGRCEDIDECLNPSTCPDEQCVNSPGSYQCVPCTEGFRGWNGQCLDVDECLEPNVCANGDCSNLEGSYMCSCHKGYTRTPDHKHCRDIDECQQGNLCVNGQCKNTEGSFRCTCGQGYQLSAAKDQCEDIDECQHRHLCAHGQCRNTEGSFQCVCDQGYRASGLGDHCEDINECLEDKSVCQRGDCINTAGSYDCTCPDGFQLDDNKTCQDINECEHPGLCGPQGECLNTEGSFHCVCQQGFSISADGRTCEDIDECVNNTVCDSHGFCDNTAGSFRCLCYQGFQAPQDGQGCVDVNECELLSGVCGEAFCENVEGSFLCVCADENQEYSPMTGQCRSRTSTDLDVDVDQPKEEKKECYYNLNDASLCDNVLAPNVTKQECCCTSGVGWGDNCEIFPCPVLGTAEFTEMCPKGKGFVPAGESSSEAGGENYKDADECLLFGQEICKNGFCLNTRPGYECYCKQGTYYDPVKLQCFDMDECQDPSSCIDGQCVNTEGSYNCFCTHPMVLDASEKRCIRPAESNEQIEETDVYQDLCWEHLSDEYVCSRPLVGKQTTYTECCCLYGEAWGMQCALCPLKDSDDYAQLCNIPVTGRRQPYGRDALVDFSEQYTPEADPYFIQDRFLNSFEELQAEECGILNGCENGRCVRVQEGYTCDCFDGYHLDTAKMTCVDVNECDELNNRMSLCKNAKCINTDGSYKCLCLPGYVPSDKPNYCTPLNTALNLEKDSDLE
UniProt Q8IWC1: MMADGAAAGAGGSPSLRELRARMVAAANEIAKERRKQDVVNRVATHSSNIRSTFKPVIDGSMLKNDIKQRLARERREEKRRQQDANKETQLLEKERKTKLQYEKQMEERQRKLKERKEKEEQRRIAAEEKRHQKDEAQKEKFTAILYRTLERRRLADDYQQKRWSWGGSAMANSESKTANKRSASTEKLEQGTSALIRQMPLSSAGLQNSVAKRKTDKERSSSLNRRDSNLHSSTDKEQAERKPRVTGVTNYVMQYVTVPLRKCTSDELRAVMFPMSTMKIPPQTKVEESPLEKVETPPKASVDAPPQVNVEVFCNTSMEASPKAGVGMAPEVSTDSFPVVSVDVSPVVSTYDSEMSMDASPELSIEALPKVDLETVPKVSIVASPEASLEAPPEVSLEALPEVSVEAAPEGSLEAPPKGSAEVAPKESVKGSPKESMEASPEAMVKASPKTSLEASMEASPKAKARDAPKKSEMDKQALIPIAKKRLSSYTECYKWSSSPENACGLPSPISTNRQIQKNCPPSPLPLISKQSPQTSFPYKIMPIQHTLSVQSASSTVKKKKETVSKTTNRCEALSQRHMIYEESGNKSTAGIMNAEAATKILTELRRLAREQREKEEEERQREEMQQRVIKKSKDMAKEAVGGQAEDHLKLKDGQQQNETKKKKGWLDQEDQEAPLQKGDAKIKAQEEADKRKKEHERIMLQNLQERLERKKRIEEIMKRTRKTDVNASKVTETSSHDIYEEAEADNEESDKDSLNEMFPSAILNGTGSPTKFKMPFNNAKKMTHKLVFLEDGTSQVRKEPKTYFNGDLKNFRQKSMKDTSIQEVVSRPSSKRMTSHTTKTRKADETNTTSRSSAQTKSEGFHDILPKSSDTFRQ
UniProt Q02779: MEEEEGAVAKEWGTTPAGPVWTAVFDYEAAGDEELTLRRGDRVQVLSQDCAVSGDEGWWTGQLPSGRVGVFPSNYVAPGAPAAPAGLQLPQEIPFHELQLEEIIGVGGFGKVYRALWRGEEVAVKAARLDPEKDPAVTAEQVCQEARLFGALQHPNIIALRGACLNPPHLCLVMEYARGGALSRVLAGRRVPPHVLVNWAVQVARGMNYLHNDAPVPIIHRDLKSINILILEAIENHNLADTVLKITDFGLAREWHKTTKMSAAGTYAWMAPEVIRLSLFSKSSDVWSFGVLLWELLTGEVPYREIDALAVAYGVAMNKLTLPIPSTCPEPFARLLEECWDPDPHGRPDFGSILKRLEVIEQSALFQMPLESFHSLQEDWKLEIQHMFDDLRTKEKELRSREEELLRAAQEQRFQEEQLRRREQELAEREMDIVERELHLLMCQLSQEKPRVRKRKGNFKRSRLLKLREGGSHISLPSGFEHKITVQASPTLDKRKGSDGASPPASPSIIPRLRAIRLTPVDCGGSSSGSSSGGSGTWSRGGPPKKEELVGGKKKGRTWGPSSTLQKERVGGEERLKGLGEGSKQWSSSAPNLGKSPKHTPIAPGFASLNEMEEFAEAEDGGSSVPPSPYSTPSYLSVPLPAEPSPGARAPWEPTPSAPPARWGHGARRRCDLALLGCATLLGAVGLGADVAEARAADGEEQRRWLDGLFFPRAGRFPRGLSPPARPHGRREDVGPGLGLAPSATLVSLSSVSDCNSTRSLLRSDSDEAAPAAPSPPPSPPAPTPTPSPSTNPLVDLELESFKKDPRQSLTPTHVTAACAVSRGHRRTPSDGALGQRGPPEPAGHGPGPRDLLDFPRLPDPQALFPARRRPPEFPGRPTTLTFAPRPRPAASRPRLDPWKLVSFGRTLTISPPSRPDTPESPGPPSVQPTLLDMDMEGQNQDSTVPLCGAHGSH
UniProt P10636, whole entry, looked up: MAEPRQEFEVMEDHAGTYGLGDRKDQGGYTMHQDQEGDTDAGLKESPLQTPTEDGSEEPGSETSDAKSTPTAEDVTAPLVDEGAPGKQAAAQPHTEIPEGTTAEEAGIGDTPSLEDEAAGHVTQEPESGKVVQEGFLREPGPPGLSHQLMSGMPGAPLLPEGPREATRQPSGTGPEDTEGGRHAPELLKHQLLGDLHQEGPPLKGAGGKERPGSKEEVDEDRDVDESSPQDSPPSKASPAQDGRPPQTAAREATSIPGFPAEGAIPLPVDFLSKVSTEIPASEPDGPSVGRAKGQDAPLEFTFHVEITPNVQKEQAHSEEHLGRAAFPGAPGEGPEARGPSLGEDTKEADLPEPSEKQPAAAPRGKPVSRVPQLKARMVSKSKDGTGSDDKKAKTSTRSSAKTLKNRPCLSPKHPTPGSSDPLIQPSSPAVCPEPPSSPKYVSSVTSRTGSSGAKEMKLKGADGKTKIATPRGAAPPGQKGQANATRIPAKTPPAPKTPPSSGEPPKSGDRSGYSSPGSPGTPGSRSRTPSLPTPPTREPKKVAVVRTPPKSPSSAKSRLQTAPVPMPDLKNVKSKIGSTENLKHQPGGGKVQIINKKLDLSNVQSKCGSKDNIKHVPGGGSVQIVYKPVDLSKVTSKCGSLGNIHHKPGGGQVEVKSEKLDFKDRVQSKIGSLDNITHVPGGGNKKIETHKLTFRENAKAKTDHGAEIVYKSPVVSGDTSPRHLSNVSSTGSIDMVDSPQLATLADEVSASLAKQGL

Compound in this test: CCN(CCCOc1ccc2c(Nc3cc(CC(=O)Nc4cccc(F)c4)[nH]n3)ncnc2c1)CCOP(=O)(O)O [barasertib]
As to the kind of experiment: log2 fold change, soluble protein after heating vs DMSO (PISA); higher = thermal stabilisation; K562 cells, 10 uM, 30 min; active = over 0.2 and 3.5 SD of the protein, either way, in both replicates (recomputed). In outline: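 K562 cells at 2×10^6 cells/mL were treated for 30 min with 10 μM compound, and aliquots were heated for 3 min over 48°C-58°C before pooling. Extraction used PBS with 0.5% NP-40 at 4°C, and soluble protein was the supernatant after 21,000xg for 90 min, measured by TMTpro 16plex LC-MS/MS with channel sums equalised. Thermal stability values, relative to control samples and from duplicates, are log2 fold changes.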
As to LRRC8B (UniProt Q6P9F7), the log2 fold change is inactive: -0.119. In the case of MAP4 isoform 5 (UniProt P27816) it was inactive: -0.114; in that of MARCHF3 (UniProt Q86UD3), inactive: 0.025.

For LTBP1 isoform 4 (UniProt Q14766), the log2 fold change is inactive: 0.011.

For the target MAP7D3 (UniProt Q8IWC1), the log2 fold change is inactive: -0.118. On to MAP3K10 (UniProt Q02779), for which the log2 fold change is inactive: -0.002. Regarding LYST (UniProt Q99698), the log2 fold change is inactive: 0.064. In the case of MAPT isoform 9 (UniProt P10636) it was inactive: 0.055.

For the origin of these results see the supplement of paper PMC10849652.
